Test results taken from the supplement of paper PMC10849652.
This is one part of the list.

Protein sequences, listed by entry. Tags and fused reporters are not part of them. Lines headed by an entry give the natural chain unless they say otherwise; changes in a name come on top.
UniProt Q8TBB5: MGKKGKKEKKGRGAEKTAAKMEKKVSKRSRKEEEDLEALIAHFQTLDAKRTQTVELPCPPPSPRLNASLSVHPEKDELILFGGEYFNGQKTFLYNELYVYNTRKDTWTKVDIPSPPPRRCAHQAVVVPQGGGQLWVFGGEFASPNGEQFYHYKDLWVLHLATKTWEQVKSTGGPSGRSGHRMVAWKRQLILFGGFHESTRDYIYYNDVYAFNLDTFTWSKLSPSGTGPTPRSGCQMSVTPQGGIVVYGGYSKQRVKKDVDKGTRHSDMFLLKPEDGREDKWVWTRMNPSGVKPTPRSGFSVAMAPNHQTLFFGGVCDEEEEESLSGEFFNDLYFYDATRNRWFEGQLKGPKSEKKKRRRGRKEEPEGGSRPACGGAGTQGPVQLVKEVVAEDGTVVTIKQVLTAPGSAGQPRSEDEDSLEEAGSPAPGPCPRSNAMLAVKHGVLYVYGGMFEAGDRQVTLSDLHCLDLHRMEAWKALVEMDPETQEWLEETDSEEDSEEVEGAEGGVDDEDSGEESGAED
UniProt P17535: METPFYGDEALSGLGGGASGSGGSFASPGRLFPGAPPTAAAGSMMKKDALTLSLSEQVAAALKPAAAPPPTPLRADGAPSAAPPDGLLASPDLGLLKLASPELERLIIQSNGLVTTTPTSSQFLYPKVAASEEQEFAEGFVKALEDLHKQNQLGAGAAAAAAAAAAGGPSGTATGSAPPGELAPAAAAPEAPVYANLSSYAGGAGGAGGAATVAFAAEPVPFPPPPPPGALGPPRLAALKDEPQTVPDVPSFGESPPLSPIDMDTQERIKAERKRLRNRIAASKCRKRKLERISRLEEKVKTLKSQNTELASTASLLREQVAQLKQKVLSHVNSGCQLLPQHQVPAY
UniProt P33176: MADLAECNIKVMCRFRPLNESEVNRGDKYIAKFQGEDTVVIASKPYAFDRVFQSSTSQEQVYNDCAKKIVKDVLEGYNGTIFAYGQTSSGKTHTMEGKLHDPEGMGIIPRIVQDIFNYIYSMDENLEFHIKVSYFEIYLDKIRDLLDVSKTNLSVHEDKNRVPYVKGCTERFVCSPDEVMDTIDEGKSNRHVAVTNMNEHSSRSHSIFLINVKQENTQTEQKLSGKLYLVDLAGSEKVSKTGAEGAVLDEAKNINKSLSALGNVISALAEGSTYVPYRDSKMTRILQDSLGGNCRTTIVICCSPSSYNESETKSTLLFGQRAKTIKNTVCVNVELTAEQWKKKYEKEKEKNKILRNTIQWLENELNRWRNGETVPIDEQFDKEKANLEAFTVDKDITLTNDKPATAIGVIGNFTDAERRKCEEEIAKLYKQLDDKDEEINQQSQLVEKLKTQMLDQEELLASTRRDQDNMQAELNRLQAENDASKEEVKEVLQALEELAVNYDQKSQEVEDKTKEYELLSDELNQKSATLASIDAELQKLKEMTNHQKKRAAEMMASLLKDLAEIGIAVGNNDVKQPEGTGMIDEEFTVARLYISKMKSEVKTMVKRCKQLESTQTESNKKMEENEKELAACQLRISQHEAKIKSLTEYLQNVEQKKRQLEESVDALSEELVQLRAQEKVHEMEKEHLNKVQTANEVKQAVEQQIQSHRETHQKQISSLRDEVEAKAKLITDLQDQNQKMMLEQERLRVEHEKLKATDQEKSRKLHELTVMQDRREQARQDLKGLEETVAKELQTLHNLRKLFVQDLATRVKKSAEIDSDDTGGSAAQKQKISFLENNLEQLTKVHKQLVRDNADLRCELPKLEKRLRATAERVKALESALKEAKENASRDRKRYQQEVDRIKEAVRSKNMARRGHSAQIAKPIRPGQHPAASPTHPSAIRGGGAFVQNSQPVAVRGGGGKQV
UniProt Q8IVT5: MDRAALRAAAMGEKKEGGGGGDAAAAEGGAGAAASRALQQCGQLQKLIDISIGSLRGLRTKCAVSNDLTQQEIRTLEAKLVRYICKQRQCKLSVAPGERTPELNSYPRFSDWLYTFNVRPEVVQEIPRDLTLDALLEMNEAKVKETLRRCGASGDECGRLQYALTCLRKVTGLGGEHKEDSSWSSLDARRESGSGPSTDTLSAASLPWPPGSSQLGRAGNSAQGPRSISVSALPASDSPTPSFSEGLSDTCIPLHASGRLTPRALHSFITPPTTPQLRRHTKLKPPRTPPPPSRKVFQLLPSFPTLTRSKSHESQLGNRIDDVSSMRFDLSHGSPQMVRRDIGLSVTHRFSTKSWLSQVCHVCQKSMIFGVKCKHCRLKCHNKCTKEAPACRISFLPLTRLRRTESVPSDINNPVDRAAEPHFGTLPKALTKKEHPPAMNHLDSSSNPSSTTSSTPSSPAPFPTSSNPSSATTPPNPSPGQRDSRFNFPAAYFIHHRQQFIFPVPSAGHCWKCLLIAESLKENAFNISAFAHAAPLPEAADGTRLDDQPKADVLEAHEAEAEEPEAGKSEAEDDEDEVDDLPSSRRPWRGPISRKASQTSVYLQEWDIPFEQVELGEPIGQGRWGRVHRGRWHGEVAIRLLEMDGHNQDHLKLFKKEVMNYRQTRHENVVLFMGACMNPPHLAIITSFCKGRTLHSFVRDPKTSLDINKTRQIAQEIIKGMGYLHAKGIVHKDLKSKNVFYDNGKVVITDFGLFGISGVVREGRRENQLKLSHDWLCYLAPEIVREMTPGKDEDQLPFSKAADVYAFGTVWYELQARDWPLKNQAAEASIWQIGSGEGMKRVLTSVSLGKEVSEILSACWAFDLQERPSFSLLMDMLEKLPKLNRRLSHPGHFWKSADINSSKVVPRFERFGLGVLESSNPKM
UniProt P52294, whole entry, looked up: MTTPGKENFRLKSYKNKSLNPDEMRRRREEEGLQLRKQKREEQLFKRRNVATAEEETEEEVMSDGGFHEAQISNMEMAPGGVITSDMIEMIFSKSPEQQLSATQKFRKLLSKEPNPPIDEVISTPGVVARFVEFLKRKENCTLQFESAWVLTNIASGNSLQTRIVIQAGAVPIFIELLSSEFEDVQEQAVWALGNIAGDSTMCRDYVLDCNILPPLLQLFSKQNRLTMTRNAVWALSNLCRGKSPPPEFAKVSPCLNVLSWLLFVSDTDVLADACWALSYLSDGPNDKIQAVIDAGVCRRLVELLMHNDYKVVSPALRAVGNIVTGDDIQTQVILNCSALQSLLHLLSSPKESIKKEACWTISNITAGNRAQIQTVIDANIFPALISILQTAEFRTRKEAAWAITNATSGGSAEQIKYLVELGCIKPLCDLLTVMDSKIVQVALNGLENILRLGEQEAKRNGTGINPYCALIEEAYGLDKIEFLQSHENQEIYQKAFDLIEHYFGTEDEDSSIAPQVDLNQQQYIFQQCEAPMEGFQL
UniProt Q9H1H9: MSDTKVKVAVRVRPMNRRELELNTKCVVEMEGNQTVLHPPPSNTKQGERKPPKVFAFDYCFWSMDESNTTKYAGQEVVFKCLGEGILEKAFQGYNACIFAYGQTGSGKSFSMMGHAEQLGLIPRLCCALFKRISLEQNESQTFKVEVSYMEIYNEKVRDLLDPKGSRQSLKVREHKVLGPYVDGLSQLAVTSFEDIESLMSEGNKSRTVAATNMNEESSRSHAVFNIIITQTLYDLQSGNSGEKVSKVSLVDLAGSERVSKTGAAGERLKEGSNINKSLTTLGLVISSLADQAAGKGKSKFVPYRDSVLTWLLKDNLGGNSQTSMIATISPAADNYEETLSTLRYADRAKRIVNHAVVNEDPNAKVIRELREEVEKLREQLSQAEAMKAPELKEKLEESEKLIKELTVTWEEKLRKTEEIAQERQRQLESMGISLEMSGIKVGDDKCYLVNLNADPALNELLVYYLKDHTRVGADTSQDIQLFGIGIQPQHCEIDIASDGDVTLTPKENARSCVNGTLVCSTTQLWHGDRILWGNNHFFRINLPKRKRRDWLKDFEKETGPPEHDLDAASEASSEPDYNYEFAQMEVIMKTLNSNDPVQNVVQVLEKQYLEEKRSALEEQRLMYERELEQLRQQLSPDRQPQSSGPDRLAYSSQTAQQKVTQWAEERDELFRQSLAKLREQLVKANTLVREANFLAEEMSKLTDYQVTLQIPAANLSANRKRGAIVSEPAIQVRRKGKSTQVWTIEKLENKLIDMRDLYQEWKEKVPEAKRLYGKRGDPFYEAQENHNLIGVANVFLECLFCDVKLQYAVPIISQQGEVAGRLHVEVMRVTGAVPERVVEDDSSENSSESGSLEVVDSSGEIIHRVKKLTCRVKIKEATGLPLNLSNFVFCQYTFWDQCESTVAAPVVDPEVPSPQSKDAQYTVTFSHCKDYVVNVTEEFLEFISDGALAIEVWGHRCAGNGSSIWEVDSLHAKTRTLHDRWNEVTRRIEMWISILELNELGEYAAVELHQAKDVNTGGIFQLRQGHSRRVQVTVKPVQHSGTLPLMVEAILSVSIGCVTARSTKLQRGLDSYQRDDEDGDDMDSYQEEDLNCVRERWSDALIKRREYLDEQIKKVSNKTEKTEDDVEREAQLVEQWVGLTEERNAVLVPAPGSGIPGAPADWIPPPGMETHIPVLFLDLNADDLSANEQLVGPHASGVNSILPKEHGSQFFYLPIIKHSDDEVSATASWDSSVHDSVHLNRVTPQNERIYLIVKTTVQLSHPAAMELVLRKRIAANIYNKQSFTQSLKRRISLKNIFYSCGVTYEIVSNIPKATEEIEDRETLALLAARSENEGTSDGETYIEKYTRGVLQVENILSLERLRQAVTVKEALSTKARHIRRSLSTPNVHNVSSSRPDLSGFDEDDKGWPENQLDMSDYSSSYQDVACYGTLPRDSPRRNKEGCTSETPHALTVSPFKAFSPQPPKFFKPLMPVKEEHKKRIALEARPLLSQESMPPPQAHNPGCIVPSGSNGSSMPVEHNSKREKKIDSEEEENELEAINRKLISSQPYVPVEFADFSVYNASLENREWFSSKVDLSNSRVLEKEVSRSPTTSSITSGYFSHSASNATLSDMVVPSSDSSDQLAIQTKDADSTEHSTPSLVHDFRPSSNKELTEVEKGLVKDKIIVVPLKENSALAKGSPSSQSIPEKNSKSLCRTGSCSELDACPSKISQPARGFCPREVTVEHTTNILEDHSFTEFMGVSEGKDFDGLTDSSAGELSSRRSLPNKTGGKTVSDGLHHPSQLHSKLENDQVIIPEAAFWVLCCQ
UniProt Q99661: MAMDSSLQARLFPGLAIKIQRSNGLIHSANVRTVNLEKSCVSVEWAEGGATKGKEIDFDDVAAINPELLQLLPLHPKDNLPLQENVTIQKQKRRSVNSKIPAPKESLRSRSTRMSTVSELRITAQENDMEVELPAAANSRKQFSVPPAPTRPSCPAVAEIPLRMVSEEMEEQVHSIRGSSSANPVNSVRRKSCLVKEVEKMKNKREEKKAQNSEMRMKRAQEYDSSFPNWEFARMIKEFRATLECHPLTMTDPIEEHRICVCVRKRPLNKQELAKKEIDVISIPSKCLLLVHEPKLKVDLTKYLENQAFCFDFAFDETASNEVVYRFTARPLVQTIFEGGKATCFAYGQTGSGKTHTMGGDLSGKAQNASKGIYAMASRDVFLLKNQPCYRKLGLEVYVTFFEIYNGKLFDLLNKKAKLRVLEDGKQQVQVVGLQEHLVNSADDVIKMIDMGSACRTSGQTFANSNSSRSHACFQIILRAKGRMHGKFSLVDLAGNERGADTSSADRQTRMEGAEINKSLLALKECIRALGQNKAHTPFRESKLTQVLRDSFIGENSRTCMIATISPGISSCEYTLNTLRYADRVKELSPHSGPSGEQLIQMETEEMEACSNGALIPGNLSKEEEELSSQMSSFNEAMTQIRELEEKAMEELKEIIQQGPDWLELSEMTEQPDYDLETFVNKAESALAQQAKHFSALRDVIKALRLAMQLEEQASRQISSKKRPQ
UniProt Q9Y496, whole entry, looked up: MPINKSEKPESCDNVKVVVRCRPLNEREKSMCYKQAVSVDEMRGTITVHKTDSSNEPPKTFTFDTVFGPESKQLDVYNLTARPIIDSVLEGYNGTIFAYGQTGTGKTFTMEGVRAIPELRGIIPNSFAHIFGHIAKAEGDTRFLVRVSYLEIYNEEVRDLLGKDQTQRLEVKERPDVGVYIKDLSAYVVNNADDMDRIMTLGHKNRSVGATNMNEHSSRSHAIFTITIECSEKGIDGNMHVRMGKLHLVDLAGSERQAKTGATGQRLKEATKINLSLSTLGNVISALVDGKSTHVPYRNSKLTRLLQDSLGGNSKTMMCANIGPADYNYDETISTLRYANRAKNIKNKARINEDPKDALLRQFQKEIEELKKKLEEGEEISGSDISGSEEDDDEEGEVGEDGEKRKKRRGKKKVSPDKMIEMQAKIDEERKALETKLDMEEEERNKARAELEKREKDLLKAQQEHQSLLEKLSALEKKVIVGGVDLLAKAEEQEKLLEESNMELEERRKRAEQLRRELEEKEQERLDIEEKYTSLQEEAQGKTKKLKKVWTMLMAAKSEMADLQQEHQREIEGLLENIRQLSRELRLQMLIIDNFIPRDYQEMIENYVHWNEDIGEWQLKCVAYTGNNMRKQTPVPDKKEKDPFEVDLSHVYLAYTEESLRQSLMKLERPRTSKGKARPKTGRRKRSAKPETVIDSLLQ

Legend:
Assay in all cases: log2 fold change, soluble protein after heating vs DMSO (PISA); higher = thermal stabilisation; K562 cells, 10 uM, 30 min; active = over 0.2 and 3.5 SD of the protein, either way, in both replicates (recomputed)
[1] = compound: COC1=CC=C(C=C1)CN2C=CC3=C2C=C(C=C3)C(=O)NO
Summary of the method: (§1)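 K562 cells at 2×10^6 cells/mL were given 10 μM compound for 30 min. Aliquots then went through 3 min of heating across 48°C-58°C, were pooled, and were extracted in PBS with 0.5% NP-40 at 4°C, and the supernatant after 21,000xg for 90 min was quantified by TMTpro 16plex LC-MS/MS with channel sums equalised. Thermal stability relative to control samples, from duplicates, is given as log2 fold change.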

[2] = compound: CON(C)C(=O)N1N=C(c2cc(F)ccc2F)S[C@@]1(CCCN)c1ccccc1 [filanesib]
Summary of the method: as §1

[3] = compound: CO[C@H]1C[C@@H]2CC[C@@H](C)[C@@](O)(O2)C(=O)C(=O)N2CCCC[C@H]2C(=O)O[C@H]([C@H](C)C[C@@H]2CC[C@H](n3cnnn3)[C@H](OC)C2)CC(=O)[C@H](C)/C=C(\C)[C@@H](O)[C@@H](OC)C(=O)[C@H](C)C[C@H](C)/C=C/C=C/C=C/1C [zotarolimus]
Summary of the method: as §1

[4] = compound: COc1cc(C(=O)O)ccc1NC(=O)[C@@H]1N[C@@H](CC(C)(C)C)[C@](C#N)(c2ccc(Cl)cc2F)[C@H]1c1cccc(Cl)c1F [idasanutlin]
Summary of the method: as §1

[5] = compound: COc1cc(Nc2ncc3c(n2)-c2ccc(Cl)cc2C(c2c(F)cccc2OC)=NC3)ccc1C(=O)O [alisertib]
Summary of the method: as §1

[6] = compound: COc1cc2nc(-c3cc(F)ccc3O)nc(N[C@@H]3CNC[C@H]3C(C)(C)O)c2cc1OC
Summary of the method: as §1

[7] = compound: COc1cc2ncnc(Nc3ccc(F)c(Cl)c3)c2cc1OCCCN1CCOCC1 [gefitinib]
Summary of the method: as §1

[8] = compound: COc1cccc2cc(-c3nc([C@H]4CC[C@H](C(=O)O)CC4)n4ncnc(N)c34)[nH]c12
Summary of the method: as §1

[9] = compound: CS(=O)(=O)CCNCc1ccc(-c2ccc3ncnc(Nc4ccc(OCc5cccc(F)c5)c(Cl)c4)c3c2)o1 [lapatinib]
Summary of the method: as §1

[10] = compound: CS(=O)(=O)N1CCN(Cc2cc3nc(-c4cccc5[nH]ncc45)nc(N4CCOCC4)c3s2)CC1 [pictilisib]
Summary of the method: as §1

[11] = compound: CS(=O)(=O)c1ccc(-c2cnc(N)c(C(=O)Nc3ccccc3)n2)cc1
Summary of the method: as §1

[12] = compound: C[C@@H](Oc1cc(-c2cnn(C3CCNCC3)c2)cnc1N)c1c(Cl)ccc(F)c1Cl [crizotinib]
Summary of the method: as §1

[13] = compound: C[C@@H]1COCCN1C2=NC(=NC(=C2)C3(CC3)S(=O)(=O)C)C4=C5C=CNC5=CC=C4
Summary of the method: as §1

[14] = compound: C[C@H](C1=CC=C(C=C1)C(=O)NC2=C3C=CNC3=NC=C2)N
Summary of the method: as §1

[15] = compound: C[C@H](Nc1ncnc2nc[nH]c12)c1cc2cccc(Cl)c2c(=O)n1-c1ccccc1 [duvelisib]
Summary of the method: as §1

[16] = compound: Cc1cc(Nc2cc(CN3CCOCC3)c3nc(C)c(Cc4ccc(Cl)cc4F)n3n2)n[nH]1 [gandotinib]
Summary of the method: as §1

[17] = compound: Cc1cc(Nc2cc(N3CCN(C)CC3)nc(Sc3ccc(NC(=O)C4CC4)cc3)n2)n[nH]1 [tozasertib]
Summary of the method: as §1

[18] = compound: Cc1cc(SCc2sc(-c3ccc(C(F)(F)F)cc3)nc2C)ccc1OCC(=O)O
Summary of the method: as §1

[19] = compound: Cc1ccc(-n2nc(C(C)(C)C)cc2NC(=O)Nc2ccc(OCCN3CCOCC3)c3ccccc23)cc1 [doramapimod]
Summary of the method: as §1

[20] = compound: Cc1ccc(C(=O)N(CCCN)[C@@H](c2nc3cc(Cl)ccc3c(=O)n2Cc2ccccc2)C(C)C)cc1 [ispinesib]
Summary of the method: as §1

Target	log2 fold change [1]	log2 fold change [2]	log2 fold change [3]	log2 fold change [4]	log2 fold change [5]	log2 fold change [6]	log2 fold change [7]	log2 fold change [8]	log2 fold change [9]	log2 fold change [10]	log2 fold change [11]	log2 fold change [12]	log2 fold change [13]	log2 fold change [14]	log2 fold change [15]	log2 fold change [16]	log2 fold change [17]	log2 fold change [18]	log2 fold change [19]	log2 fold change [20]
KCTD5 (UniProt Q9NXV2)	inactive: 0.25	inactive: 0.138	inactive: -0.067	inactive: 0.028	inactive: -0.114	inactive: 0.078	inactive: 0.023	inactive: 0.012	inactive: -0.003	inactive: 0.14	inactive: 0.028	inactive: 0.056	inactive: -0.031	inactive: 0.042	inactive: 0.071	inactive: 0.11	inactive: -0.023	inactive: -0.014	inactive: -0.019	inactive: 0.149
KPNA3 (UniProt O00505)	inactive: 0.027	inactive: -0.028	inactive: 0.031	inactive: 0.068	inactive: 0.121	inactive: -0.099	inactive: 0.008	inactive: 0.005	inactive: 0.011	inactive: 0.007	inactive: 0.003	inactive: -0.068	inactive: -0.005	inactive: -0.025	inactive: 0.048	inactive: -0.033	inactive: -0.023	inactive: 0.136	inactive: -0.048	inactive: -0.036
KHDRBS1 (UniProt Q07666)	inactive: 0.06	inactive: 0.041	inactive: -0.012	inactive: 0.002	inactive: 0.014	inactive: 0.129	inactive: 0.026	inactive: 0.008	inactive: -0.072	inactive: -0.072	inactive: -0.091	inactive: -0.02	inactive: -0.06	inactive: -0.019	–	inactive: 0.07	–	inactive: 0.038	inactive: -0.027	inactive: 0.011
KRAS isoform 2 (UniProt P01116)	inactive: 0.01	inactive: 0.005	inactive: -0.033	inactive: 0.099	inactive: 0.029	inactive: 0.037	inactive: 0.015	inactive: 0.033	inactive: -0.009	inactive: 0.046	inactive: 0.03	inactive: 0.024	inactive: -0.016	inactive: 0.019	–	inactive: -0.05	–	inactive: -0.018	inactive: -0.019	inactive: -0.09
KLC2 (UniProt Q9H0B6)	inactive: 0.06	inactive: -0.038	inactive: -0.028	inactive: -0.065	inactive: -0.047	inactive: -0.133	inactive: 0.017	inactive: 0	inactive: -0.005	inactive: 0.083	inactive: 0.012	inactive: -0.131	inactive: 0.008	inactive: -0.007	–	inactive: -0.079	–	inactive: 0.047	inactive: -0.002	inactive: -0.062
KLHDC4 (UniProt Q8TBB5)	inactive: -0.045	active: 0.435	inactive: 0.044	inactive: 0.199	inactive: -0.023	inactive: 0.076	inactive: 0.03	inactive: 0.1	inactive: -0.026	inactive: 0.029	inactive: 0.093	inactive: 0.157	inactive: -0.07	inactive: 0.111	–	inactive: 0.041	–	inactive: 0.039	inactive: 0.069	inactive: 0
KIAA0100 (UniProt Q14667)	inactive: -0.035	inactive: -0.088	inactive: -0.024	inactive: -0.044	inactive: 0.052	inactive: 0.164	inactive: -0.027	inactive: 0.033	inactive: -0.028	inactive: -0.055	inactive: 0.062	inactive: 0.016	inactive: 0.033	inactive: -0.026	inactive: 0.068	inactive: -0.002	inactive: -0.132	inactive: -0.083	inactive: -0.027	inactive: -0.064
JUND (UniProt P17535)	inactive: -0.089	inactive: 0.065	inactive: -0.026	inactive: -0.116	inactive: -0.087	inactive: -0.029	inactive: -0.075	inactive: -0.028	inactive: 0.041	inactive: -0.032	inactive: 0.019	inactive: 0.044	inactive: -0.049	inactive: 0.111	inactive: 0.122	inactive: 0.008	inactive: -0.087	inactive: -0.028	inactive: 0.05	inactive: -0.017
KIF5B (UniProt P33176)	inactive: 0.03	inactive: -0.032	inactive: 0.04	inactive: -0.052	inactive: -0.066	inactive: 0.01	inactive: -0.005	inactive: -0.01	inactive: 0.008	inactive: 0.017	inactive: 0.029	inactive: -0.007	inactive: 0.055	inactive: -0.046	inactive: 0.019	inactive: -0.068	inactive: -0.009	inactive: 0.024	inactive: 0.001	inactive: 0.083
KHDC4 (UniProt Q7Z7F0)	inactive: 0.14	inactive: -0.025	inactive: 0.035	inactive: -0.043	inactive: -0.003	inactive: 0.025	inactive: 0.015	inactive: -0.026	inactive: -0.025	inactive: -0.028	inactive: 0.045	inactive: -0.091	inactive: 0	inactive: -0.074	–	inactive: -0.052	–	inactive: 0.207	inactive: -0.054	inactive: 0.027
KSR1 (UniProt Q8IVT5)	inactive: 0.015	inactive: 0.033	inactive: 0.016	inactive: 0.034	inactive: 0.123	inactive: -0.329	inactive: -0.028	inactive: 0.126	inactive: 0.087	inactive: 0.176	inactive: -0.017	inactive: -0.287	inactive: 0.036	inactive: 0.047	–	inactive: -0.067	–	inactive: -0.017	inactive: 0.052	inactive: -0.113
IWS1 (UniProt Q96ST2)	inactive: 0.007	inactive: -0.013	inactive: -0.006	inactive: -0.105	inactive: -0.068	inactive: 0.124	inactive: -0.055	inactive: 0.055	inactive: -0.077	inactive: -0.011	inactive: 0.077	inactive: 0.146	inactive: 0.132	inactive: 0.119	–	inactive: 0.108	–	inactive: 0.062	inactive: -0.134	inactive: 0.061
KPNA1 (UniProt P52294)	inactive: -0.115	inactive: 0.072	inactive: 0.065	inactive: 0.019	inactive: 0.078	inactive: 0.083	inactive: 0.011	inactive: -0.042	inactive: 0.01	inactive: 0.094	inactive: -0.021	inactive: -0.169	inactive: -0.029	inactive: 0.084	–	inactive: 0.01	–	inactive: -0.008	inactive: 0.062	inactive: -0.012
KIF13A (UniProt Q9H1H9)	inactive: 0.003	inactive: 0.01	inactive: -0.057	inactive: -0.022	inactive: -0.022	inactive: 0.037	inactive: 0.194	inactive: 0.139	inactive: -0.012	inactive: -0.097	inactive: 0.018	inactive: 0.058	inactive: 0.112	inactive: 0.072	–	active: -0.384	–	inactive: -0.009	inactive: -0.011	inactive: -0.003
KIF21A isoform 4 (UniProt Q7Z4S6)	inactive: 0.014	inactive: 0.028	inactive: 0.051	inactive: 0.07	inactive: 0.051	inactive: 0.163	inactive: -0.028	inactive: -0.126	inactive: 0.001	inactive: 0.037	inactive: 0.092	inactive: -0.039	inactive: 0.027	inactive: 0.207	–	inactive: -0.001	–	inactive: 0.044	inactive: 0.047	inactive: -0.153
KIF2C (UniProt Q99661)	inactive: 0.063	inactive: -0.033	inactive: 0.001	inactive: -0.046	inactive: -0.008	inactive: 0.09	inactive: 0.006	inactive: -0.081	inactive: -0.048	inactive: 0.008	inactive: -0.016	inactive: -0.171	inactive: -0.028	inactive: 0.012	–	inactive: -0.065	–	inactive: 0.082	inactive: 0.007	inactive: -0.028
KIF3A (UniProt Q9Y496)	inactive: 0.219	inactive: -0.091	inactive: -0.004	inactive: 0.056	inactive: -0.027	inactive: 0.137	inactive: -0.129	inactive: 0	inactive: -0.063	inactive: 0.146	inactive: 0.049	inactive: -0.239	inactive: -0.01	inactive: 0.143	–	inactive: -0.024	–	inactive: -0.029	inactive: 0.003	inactive: 0.044

Exported as comma-separated lines: entries from further up.
Target,log2 fold change [1],log2 fold change [2],log2 fold change [3],log2 fold change [4],log2 fold change [5],log2 fold change [6],log2 fold change [7],log2 fold change [8],log2 fold change [9],log2 fold change [10],log2 fold change [11],log2 fold change [12],log2 fold change [13],log2 fold change [14],log2 fold change [15],log2 fold change [16],log2 fold change [17],log2 fold change [18],log2 fold change [19],log2 fold change [20]
KPNA3 (UniProt O00505),inactive: 0.027,inactive: -0.028,inactive: 0.031,inactive: 0.068,inactive: 0.121,inactive: -0.099,inactive: 0.008,inactive: 0.005,inactive: 0.011,inactive: 0.007,inactive: 0.003,inactive: -0.068,inactive: -0.005,inactive: -0.025,inactive: 0.048,inactive: -0.033,inactive: -0.023,inactive: 0.136,inactive: -0.048,inactive: -0.036
KRAS isoform 2 (UniProt P01116),inactive: 0.01,inactive: 0.005,inactive: -0.033,inactive: 0.099,inactive: 0.029,inactive: 0.037,inactive: 0.015,inactive: 0.033,inactive: -0.009,inactive: 0.046,inactive: 0.03,inactive: 0.024,inactive: -0.016,inactive: 0.019,–,inactive: -0.05,–,inactive: -0.018,inactive: -0.019,inactive: -0.09
KIAA0100 (UniProt Q14667),inactive: -0.035,inactive: -0.088,inactive: -0.024,inactive: -0.044,inactive: 0.052,inactive: 0.164,inactive: -0.027,inactive: 0.033,inactive: -0.028,inactive: -0.055,inactive: 0.062,inactive: 0.016,inactive: 0.033,inactive: -0.026,inactive: 0.068,inactive: -0.002,inactive: -0.132,inactive: -0.083,inactive: -0.027,inactive: -0.064
KIF2C (UniProt Q99661),inactive: 0.063,inactive: -0.033,inactive: 0.001,inactive: -0.046,inactive: -0.008,inactive: 0.09,inactive: 0.006,inactive: -0.081,inactive: -0.048,inactive: 0.008,inactive: -0.016,inactive: -0.171,inactive: -0.028,inactive: 0.012,–,inactive: -0.065,–,inactive: 0.082,inactive: 0.007,inactive: -0.028
